{
  "source": "PubChem BioAssay AID504834",
  "about": "(National Center for Advancing Translational Sciences (NCATS), 2011)",
  "note": "The whole screen tested about 320,000 compounds, of which about 22,000 (6.9%) were called active. This list was built around the results that the source calls inconclusive (neither active nor inactive); the mix of calls is not that of the screen. Calls come from the whole dose curve; as a rule, active = well fitted inhibition curve with a large enough effect; inconclusive = small, poorly fitted or top-dose-only effect, or another doubt; inactive = no such curve, though single readings can be large or run the other way. Potencies beside an inconclusive call are fits to weak or partial responses and may not hold up. % is set by controls: 0 for no effect and ±100 for the full control effect; potency is the fitted concentration of half-maximal effect.",
  "data": [
    {"assay": "Primary qHTS for delayed death inhibitors of the malarial parasite plastid, 96 hour incubation", "conditions": "P. falciparum luciferase reporter growth; series mostly up to 28.7 µM", "in_short": "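Parasite growth measured via integrated firefly luciferase reporter in P. falciparum. Infected erythrocytes at 2% hematocrit, 0.05% parasitemia final were treated 96 hours at 37 C under 5% CO2, and luminescence was read.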", "values": [
      {"smiles": "Cc1ccc(-c2nc(CSCC(=O)NCc3cccnc3)c(C)o2)cc1", "Potency": "inconclusive: 0.0738 µM [inhibitor, full curve, poor fit]"},
      {"smiles": "COc1ccc(CC(=O)Nc2ccc(-c3noc(-c4cc(OC)c(OC)c(OC)c4)n3)cc2)cc1", "Potency": "inactive"},
      {"smiles": "COc1ccc(C2=Nc3ccc(C)cc3C(c3ccccc3)N2CC(=O)NN)cc1", "note": "(stereo unspecified)", "Potency": "active: 1.85 µM"},
      {"smiles": "CN(C)c1ccc(NC(=O)CN2CCN(c3ccc(F)cc3)CC2)cc1", "Potency": "inconclusive: 20.8 µM [inhibitor, single point]"},
      {"smiles": "COCCNC(=O)[C@H](C)[C@H]1C[C@]1(C)[C@H](NC(=O)OCc1ccccc1)c1ccccc1", "Potency": "inconclusive: 18.5 µM [inhibitor, single point]"},
      {"smiles": "CN(C)S(=O)(=O)c1ccc(Cl)c(NC(=O)COC(=O)C2CSC3(C)CCC(=O)N23)c1", "note": "(stereo unspecified)", "Potency": "inactive"},
      {"smiles": "NC(=O)CCCCC(=O)OCCCc1cccs1", "Potency": "active: 4.65 µM"},
      {"smiles": "COc1ccc(OC)c(N=C(N)N=C(N)N)c1", "Potency": "inconclusive: 2.62 µM [inhibitor, partial curve, poor fit]"},
      {"smiles": "CCN(C(=O)CN1C(=O)/C(=C/c2ccccc2)SC1=S)C1CCS(=O)(=O)C1", "note": "(stereo unspecified)", "Potency": "inactive"},
      {"smiles": "CCC(=O)NC(=S)Nc1cccc(NC(=O)c2ccccc2)c1", "Potency": "inconclusive: 16.5 µM [inhibitor, single point]"},
      {"smiles": "CCCCSC1=NN1c1nc(N)nc(C)c1CC", "Potency": "active: 8.28 µM"},
      {"smiles": "O=C1C=C(c2ccc(CO)cc2)C[C@@H](c2ccc3c(c2)OCO3)C1", "Potency": "inconclusive: 2.08 µM [inhibitor, single point]"},
      {"smiles": "Cc1n[nH]c(=S)n1/N=C/c1ccccc1OCc1ccc(Cl)cc1Cl", "Potency": "inconclusive: 9.28 µM [inhibitor, partial curve]"},
      {"smiles": "Cn1c(-c2ccccn2)[n+](C)c2ccccc21", "Potency": "inactive"},
      {"smiles": "CCOC(=O)CCC(=O)Nc1ccc(S(=O)(=O)N2CCc3ccccc32)cc1", "Potency": "inconclusive: 8.28 µM [inhibitor, partial curve, poor fit]"},
      {"smiles": "COC(=O)CCC(=O)OC1(C)C(=O)C2=CN(CCN3CCOCC3)C(c3ccc(OC)cc3)=CC2=C(Br)C1=O", "note": "(stereo unspecified)", "Potency": "inconclusive: 18.5 µM [inhibitor, single point]"},
      {"smiles": "O=C(Nc1ccon1)c1ccc(S(=O)(=O)N2CCCCCC2)cc1", "Potency": "inconclusive: 10.4 µM [inhibitor, single point]"},
      {"smiles": "COc1ccc(/C=N/NC(=O)Cc2cccs2)cc1", "Potency": "inconclusive: 0.0828 µM [inhibitor, full curve, poor fit]"},
      {"smiles": "COC(=O)C1=C(NC(C)=O)CCS1", "Potency": "inconclusive: 18.5 µM [inhibitor, single point]"},
      {"smiles": "O=C(NCc1ccccc1F)c1cc(=O)[nH]c2ccccc12", "Potency": "inactive"},
      {"smiles": "CC(=O)c1ccc(N2CCN(C(=O)C3CCN(C(=O)Nc4ccccc4)CC3)CC2)cc1", "Potency": "inconclusive: 5.22 µM [inhibitor, partial curve, poor fit]"},
      {"smiles": "O=C(NCCCn1ccnc1)c1cc(-c2ccc(Cl)cc2)nc2ccccc12", "Potency": "inactive"},
      {"smiles": "FC(F)Oc1ccc(-c2csc(=Nc3cccnc3)n2CC2CCCO2)cc1", "note": "(stereo unspecified)", "Potency": "active: 13.1 µM"},
      {"smiles": "COc1ccccc1C(=O)Nc1nnc(S(=O)(=O)N2CCCCC2)s1", "Potency": "inactive"},
      {"smiles": "Cc1cccc2c1-c1sc(C(=O)NCCCN3CCC(C)CC3)cc1CO2", "Potency": "inconclusive: 8.28 µM [inhibitor, partial curve, poor fit]"},
      {"smiles": "CCOCCCn1c(SCc2nc3ccccc3s2)nc2ccccc2c1=O", "Potency": "inconclusive: 18.5 µM [inhibitor, single point]"},
      {"smiles": "CCn1c(=O)c(C(=O)CN2CCCc3ccccc32)c(N)n(Cc2ccccc2)c1=O", "Potency": "active: 11.7 µM"},
      {"smiles": "Cc1ccc[n+](CC(=O)/C=C2\\N(C)c3ccccc3C2(C)C)c1", "Potency": "active: 0.37 µM"},
      {"smiles": "Cc1c(Cl)cccc1NC(=O)CCN1CCCC(C)C1", "note": "(stereo unspecified)", "Potency": "inconclusive: 1.04 µM [inhibitor, full curve, poor fit]"},
      {"smiles": "COc1ccccc1NC(=O)CSc1ncc(CO)n1Cc1ccc(F)cc1", "Potency": "inconclusive: 18.5 µM [inhibitor, single point]"},
      {"smiles": "CCn1cc(C(=O)Nc2ncccc2O)c(=O)c2cc(F)c(N3CCN(C(=O)c4ccco4)CC3)cc21", "Potency": "active: 4.65 µM"},
      {"smiles": "COc1ccc(/C=C/C2=Nc3ccccc3NC(C)(C)C2)cc1OC", "Potency": "inconclusive: 13.1 µM [inhibitor, single point]"},
      {"smiles": "COc1ccc(C(=O)CSc2nnc(-c3ccco3)o2)cc1", "Potency": "inconclusive: 13.1 µM [inhibitor, partial curve]"},
      {"smiles": "COc1cc(NC(=O)CCCNC(=O)Cn2cnc3sc(C)c(C)c3c2=O)cc(OC)c1OC", "Potency": "inactive"},
      {"smiles": "CC(C)c1ccc2[nH]c(O)c(N=NC(=O)c3ccc(CSc4nncn4C)cc3)c2c1", "Potency": "active: 5.22 µM"},
      {"smiles": "Nc1ccn(CC(=O)NCc2ccccc2)c(=O)n1", "Potency": "inactive"},
      {"smiles": "COc1ccc(Cl)cc1NC(=O)CN1CCC(n2nnc3cc(F)ccc32)CC1", "Potency": "inconclusive: 18.5 µM [inhibitor, single point]"},
      {"smiles": "COc1ccc(CN(Cc2cc3cccc(C)c3n3nnnc23)C(=O)N2CCOCC2)cc1", "Potency": "inactive"},
      {"smiles": "CN(c1ccccc1)S(=O)(=O)c1ccc(NC(=O)C2CC2)cc1", "Potency": "active: 6.57 µM"},
      {"smiles": "Cc1nn(C)c(Cl)c1C(=O)NC(C(=O)O)c1ccccc1", "note": "(stereo unspecified)", "Potency": "inconclusive: 9.28 µM [inhibitor, single point]"},
      {"smiles": "CNC(=O)c1c(C)noc1C", "Potency": "inactive"},
      {"smiles": "COc1ccccc1NC(=S)NNC(=O)c1ccc(O)cc1", "Potency": "active: 0.37 µM"},
      {"smiles": "CC1CCN(C(=O)CSc2nc3ccccc3c(=O)[nH]2)CC1", "Potency": "inconclusive: 14.7 µM [inhibitor, partial curve, poor fit]"},
      {"smiles": "COC(=O)c1cccc(NC(=O)c2cccc(N3C(=O)CCC3=O)c2)c1", "Potency": "inactive"},
      {"smiles": "Cc1ccc(S(=O)(=O)NCC(=O)NCC(=O)OCc2c(F)cccc2Cl)cc1", "Potency": "inactive"},
      {"smiles": "O=C(Nc1c(C(=O)N2CCCCC2)cnn1-c1ccccc1)c1ccccc1F", "Potency": "inconclusive: 13.1 µM [inhibitor, single point]"},
      {"smiles": "CN(C)c1oc(-c2ccc(OCc3ccc(Cl)cc3)cc2)nc1C#N", "Potency": "inconclusive: 3.7 µM [inhibitor, single point]"},
      {"smiles": "O=S(=O)(c1ccc(Br)cc1)c1cnc2ccccc2n1", "Potency": "active: 11.7 µM"},
      {"smiles": "CC1CCC(NC(=O)COC(=O)c2cccnc2Cl)CC1", "note": "(stereo unspecified)", "Potency": "inactive"},
      {"smiles": "CC(C)Sc1nnc(Nc2ccccc2)s1", "Potency": "inconclusive: 10.4 µM [inhibitor, single point]"},
      {"smiles": "Cc1ccccc1C(=O)Nc1nnc(SCC(=O)NC2CC2)s1", "Potency": "inconclusive: 9.28 µM [inhibitor, single point]"},
      {"smiles": "CC(C)(C)OC(=O)N1CCC(CC2CC(c3cccc(Br)c3)=NO2)(C(=O)NCC2CCCCC2)CC1", "note": "(stereo unspecified)", "Potency": "inconclusive: 1.31 µM [inhibitor, partial curve, poor fit]"},
      {"smiles": "Cc1c(-c2ccccc2)[n+](=O)c2c(n1[O-])CCCCC2", "Potency": "inactive"},
      {"smiles": "O=C(CCNS(=O)(=O)c1ccccc1C(F)(F)F)N1CCN(C(c2ccccc2)c2ccccc2)CC1", "Potency": "inconclusive: 10.4 µM [inhibitor, partial curve]"},
      {"smiles": "COc1ccc(-c2cc3cccc(OC)c3oc2=O)cc1", "Potency": "inconclusive: 20.8 µM [inhibitor, single point]"},
      {"smiles": "CC1CCC(=O)N(CCOc2ccccc2)CC1", "note": "(stereo unspecified)", "Potency": "inactive"},
      {"smiles": "Cc1ccccc1Nc1nc(CSc2nnnn2-c2ccccc2)cs1", "Potency": "inconclusive: 14.7 µM [inhibitor, single point]"},
      {"smiles": "COc1cc(/C=N/O)cc(Br)c1OCc1ccc(Cl)cc1", "Potency": "inconclusive: 10.4 µM [inhibitor, partial curve, poor fit]"},
      {"smiles": "COc1ccc(CCNC(=O)CN(C)S(=O)(=O)c2ccc(OC)cc2)cc1", "Potency": "inconclusive: 10.4 µM [inhibitor, single point]"},
      {"smiles": "COc1ccc(-c2cc(C(F)(F)F)nc(SCC(=O)NCc3ccco3)n2)cc1OC", "Potency": "inconclusive: 18.5 µM [inhibitor, single point]"},
      {"smiles": "CCOC(=O)CCSc1nc(C(C)(C)C)cc(C(F)(F)F)c1C#N", "Potency": "inconclusive: 0.0738 µM [inhibitor, full curve, poor fit]"},
      {"smiles": "Cc1cc(NC(=O)Nc2ccc(C)c(C)c2)no1", "activity change, negative = inhibition": "inactive: -7.14% [at 5.75 µM]"},
      {"smiles": "COc1ccc(CN(C)C(=O)c2cc(S(=O)(=O)Nc3ccccc3F)ccc2C)c(OC)c1", "Potency": "inconclusive: 18.5 µM [inhibitor, single point]"},
      {"smiles": "O=C1CCCc2ccccc2N1Cc1ccccc1Cl", "Potency": "inconclusive: 0.185 µM [inhibitor, full curve, poor fit]"},
      {"smiles": "CC(=O)c1ccc(OCC(=O)NCc2ccc(F)cc2)cc1", "Potency": "inconclusive: 18.5 µM [inhibitor, single point]"},
      {"smiles": "Cc1cc(C)cc(N(CC(=O)NCc2cccnc2)S(C)(=O)=O)c1", "Potency": "inconclusive: 18.5 µM [inhibitor, single point]"},
      {"smiles": "CCc1nc2c(sc3nc4c(cc32)COC(C)(C)C4)c(=O)n1Cc1ccccc1", "Potency": "inconclusive: 0.738 µM [inhibitor, full curve]"},
      {"smiles": "C#CCNC(=O)C1=C[C@H](c2ccc3c(c2)OCO3)[C@@H](CCCO)[C@H](OCC)O1", "Potency": "inconclusive: 9.28 µM [inhibitor, single point]"},
      {"smiles": "CC(C)Oc1ccc(S(=O)(=O)N2CCCCC2)cc1NC(=O)C1CCCC1", "Potency": "inconclusive: 18.5 µM [inhibitor, single point]"},
      {"smiles": "CCN(CC)CC(=O)Nc1ccc(-c2ccc(NC(=O)CN(CC)CC)c(OC)c2)cc1OC", "Potency": "inconclusive: 13.1 µM [inhibitor, single point]"},
      {"smiles": "CS(=O)(=O)N1CC2CCCN2c2cc(C(F)(F)F)ccc21", "note": "(stereo unspecified)", "Potency": "inconclusive: 18.5 µM [inhibitor, single point]"}
    ]}
  ]
}
